# From patent US20130029334A1, “mRNA As Biomarkers For Liver Injury or Other Liver Perturbations” (priority 2010, published 2013)
# Legend:
# rats [1] = test: Canonical pathway analysis of APAP and DGAL microarray data; parameters: species or system rat; details: APAP treatment
# rats [2] = test: Sucrose density gradient fractionation of plasma 14,000xg pellet with qPCR and electron microscopy; assay type: in vivo, rat; details: plasma pellet of DGAL-treated rats
SMILES,"# genes diff. exp., Cell Death: Cell death (rats [1])","Gene Exp. Ratio, canonical pathway Antigen Presentation (rats [1])","Gene Exp. Ratio, canonical pathway B-cell Receptor Signaling (rats [1])","Gene Exp. Ratio, canonical pathway Caveolar-Mediated Endocytosis (rats [1])","Gene Exp. Ratio, canonical pathway Ephrin Receptor Signaling (rats [1])","Gene Exp. Ratio, canonical pathway Fcy Receptor-mediated Phagocytosis in Macrophages and Monocytes (rats [1])","Gene Exp. Ratio, canonical pathway Integrin Signaling (rats [1])","Gene Exp. Ratio, canonical pathway Lipid Ag Presentation by CD1 (rats [1])","Gene Exp. Ratio, canonical pathway Thrombin Signaling (rats [1])","Gene Exp. Ratio, canonical pathway Virus Entry via Endocytic Pathways (rats [1])",share of Hp mRNA copies in middle fractions (rats [2]) [%],share of total Alb mRNA copies in middle fractions (1.10-1.18 g/ml) (rats [2]) [%],share of total Fgb mRNA copies in middle fractions (rats [2]) [%]
"CC(=O)Nc1ccc(O)cc1 [APAP, acetaminophen]",223,9/39,21/155,15/182,25/195,18/104,31/203,6/20,28/203,17/96,,,
"N[C@H]1C(O)O[C@H](CO)[C@H](O)[C@@H]1O (stereo partly drawn) [DGAL, D-(+)-galactosamine]",,,,,,,,,,,81,89,84
